According to publication PMC4609182:
No constants are given. Whether binding was seen depends on the method and setting.

Molecular target: T1, Full-length Parkin, unmodified (rat), Q9JK66
T1 chain: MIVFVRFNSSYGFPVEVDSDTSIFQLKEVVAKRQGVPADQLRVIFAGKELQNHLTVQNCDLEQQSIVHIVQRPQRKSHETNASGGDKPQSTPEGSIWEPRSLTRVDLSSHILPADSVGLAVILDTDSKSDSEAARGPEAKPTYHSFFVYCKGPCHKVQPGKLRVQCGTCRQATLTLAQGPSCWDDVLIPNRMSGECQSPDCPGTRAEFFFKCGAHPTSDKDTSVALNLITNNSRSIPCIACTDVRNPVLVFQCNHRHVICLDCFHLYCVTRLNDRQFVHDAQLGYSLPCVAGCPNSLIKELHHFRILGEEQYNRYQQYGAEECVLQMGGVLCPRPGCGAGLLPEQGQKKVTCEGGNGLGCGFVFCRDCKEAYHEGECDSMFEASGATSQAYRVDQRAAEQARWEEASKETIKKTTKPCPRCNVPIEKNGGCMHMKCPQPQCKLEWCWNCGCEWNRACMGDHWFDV
Assay: SAXS; full-length Parkin at 1.5, 3 and 6 mg/ml; 20°C; 50 mM Tris–HCl pH 8.0, 150 mM NaCl, 2% glycerol, 10 mM DTT; mass estimate; both purified
Details: remark: other sources report otherwise

B1: Full-length Parkin, unmodified, Q9JK66 1-465 (enzyme)
chain: T1 chain
- binding: no binding
